Reference: paper PMC8949324

Chains of the proteins cited; added tags and fusions are not shown.
UniProt P16794: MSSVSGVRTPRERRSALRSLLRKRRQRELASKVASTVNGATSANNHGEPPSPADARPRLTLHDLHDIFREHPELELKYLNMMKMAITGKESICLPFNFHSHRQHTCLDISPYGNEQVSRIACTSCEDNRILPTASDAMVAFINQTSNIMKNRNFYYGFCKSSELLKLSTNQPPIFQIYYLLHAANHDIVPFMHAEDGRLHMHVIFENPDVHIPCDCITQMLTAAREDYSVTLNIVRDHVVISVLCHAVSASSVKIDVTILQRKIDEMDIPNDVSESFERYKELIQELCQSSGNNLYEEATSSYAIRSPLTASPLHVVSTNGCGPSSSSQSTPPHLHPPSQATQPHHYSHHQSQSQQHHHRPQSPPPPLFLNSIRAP
UniProt P08318: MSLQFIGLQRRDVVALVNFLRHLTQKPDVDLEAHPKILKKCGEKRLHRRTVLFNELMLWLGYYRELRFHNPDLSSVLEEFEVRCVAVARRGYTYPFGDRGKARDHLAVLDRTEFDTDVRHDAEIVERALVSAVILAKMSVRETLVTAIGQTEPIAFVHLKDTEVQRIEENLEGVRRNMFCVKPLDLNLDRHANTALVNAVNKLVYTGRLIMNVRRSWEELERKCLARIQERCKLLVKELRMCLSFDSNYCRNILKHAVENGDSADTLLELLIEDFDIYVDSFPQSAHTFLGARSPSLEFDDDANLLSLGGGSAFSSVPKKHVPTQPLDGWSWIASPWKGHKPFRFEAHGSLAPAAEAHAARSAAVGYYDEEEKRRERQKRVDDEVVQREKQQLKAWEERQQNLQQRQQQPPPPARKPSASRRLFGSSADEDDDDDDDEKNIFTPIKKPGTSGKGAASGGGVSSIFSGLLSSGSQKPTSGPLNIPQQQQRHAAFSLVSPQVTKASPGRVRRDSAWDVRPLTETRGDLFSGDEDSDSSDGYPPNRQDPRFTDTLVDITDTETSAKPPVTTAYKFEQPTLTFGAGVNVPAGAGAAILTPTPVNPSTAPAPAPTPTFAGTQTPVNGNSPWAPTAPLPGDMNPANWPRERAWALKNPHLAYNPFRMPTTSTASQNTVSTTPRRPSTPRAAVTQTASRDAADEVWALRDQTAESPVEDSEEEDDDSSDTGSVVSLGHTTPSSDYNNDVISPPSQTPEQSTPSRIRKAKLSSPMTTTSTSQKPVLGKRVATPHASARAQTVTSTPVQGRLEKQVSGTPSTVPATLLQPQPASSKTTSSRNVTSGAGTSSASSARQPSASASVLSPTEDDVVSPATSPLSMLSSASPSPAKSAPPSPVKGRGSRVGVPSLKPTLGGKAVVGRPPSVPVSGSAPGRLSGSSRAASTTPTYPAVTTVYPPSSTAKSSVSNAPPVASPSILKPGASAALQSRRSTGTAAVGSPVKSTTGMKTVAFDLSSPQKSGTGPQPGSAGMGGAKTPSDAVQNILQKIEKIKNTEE
UniProt Q9Y4I1: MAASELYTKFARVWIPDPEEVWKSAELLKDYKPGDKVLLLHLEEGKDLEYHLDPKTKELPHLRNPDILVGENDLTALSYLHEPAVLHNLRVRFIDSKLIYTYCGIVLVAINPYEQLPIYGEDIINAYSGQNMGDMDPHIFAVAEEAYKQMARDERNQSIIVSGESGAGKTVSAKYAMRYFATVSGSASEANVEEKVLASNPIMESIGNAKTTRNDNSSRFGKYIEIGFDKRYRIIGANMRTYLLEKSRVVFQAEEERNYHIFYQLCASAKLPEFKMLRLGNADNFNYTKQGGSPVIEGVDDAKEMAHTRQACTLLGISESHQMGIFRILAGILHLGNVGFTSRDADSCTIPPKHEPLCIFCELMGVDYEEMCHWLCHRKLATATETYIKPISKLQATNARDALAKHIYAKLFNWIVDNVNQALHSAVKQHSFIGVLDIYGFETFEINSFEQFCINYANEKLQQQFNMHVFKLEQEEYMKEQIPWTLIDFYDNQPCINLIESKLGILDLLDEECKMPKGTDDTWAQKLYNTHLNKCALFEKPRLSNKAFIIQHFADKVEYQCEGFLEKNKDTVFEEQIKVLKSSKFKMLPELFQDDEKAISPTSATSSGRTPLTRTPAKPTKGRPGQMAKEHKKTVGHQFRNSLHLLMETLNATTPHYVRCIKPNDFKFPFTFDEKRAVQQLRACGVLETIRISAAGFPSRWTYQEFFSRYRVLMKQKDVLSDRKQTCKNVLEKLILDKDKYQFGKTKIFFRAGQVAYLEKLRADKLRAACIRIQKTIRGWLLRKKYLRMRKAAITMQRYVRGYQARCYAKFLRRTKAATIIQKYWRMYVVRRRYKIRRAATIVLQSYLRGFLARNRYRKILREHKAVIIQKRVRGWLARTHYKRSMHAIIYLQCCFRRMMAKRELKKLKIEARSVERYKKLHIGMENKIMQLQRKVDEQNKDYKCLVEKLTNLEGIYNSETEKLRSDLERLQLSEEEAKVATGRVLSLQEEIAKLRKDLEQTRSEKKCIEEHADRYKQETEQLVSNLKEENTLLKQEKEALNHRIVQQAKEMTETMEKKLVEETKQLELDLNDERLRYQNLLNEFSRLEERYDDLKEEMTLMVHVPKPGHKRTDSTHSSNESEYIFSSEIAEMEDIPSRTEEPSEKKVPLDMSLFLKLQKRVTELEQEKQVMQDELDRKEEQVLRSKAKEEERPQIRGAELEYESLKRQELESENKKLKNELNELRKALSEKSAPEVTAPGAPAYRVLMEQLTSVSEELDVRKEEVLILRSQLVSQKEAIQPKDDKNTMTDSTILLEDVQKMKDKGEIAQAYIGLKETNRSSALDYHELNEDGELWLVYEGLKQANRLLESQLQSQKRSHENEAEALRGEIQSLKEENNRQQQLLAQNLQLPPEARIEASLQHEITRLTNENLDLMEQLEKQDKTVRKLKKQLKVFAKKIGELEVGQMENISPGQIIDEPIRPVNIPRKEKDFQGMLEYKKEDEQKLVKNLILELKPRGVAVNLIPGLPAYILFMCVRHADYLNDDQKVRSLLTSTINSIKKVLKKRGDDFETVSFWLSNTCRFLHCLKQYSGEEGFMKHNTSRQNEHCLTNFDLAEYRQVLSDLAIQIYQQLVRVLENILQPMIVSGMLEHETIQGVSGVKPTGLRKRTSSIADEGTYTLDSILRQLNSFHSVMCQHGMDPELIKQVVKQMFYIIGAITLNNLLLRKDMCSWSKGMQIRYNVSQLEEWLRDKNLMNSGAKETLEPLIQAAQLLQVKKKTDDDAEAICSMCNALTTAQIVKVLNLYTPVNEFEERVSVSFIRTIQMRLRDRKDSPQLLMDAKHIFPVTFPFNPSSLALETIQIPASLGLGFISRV
UniProt P09695: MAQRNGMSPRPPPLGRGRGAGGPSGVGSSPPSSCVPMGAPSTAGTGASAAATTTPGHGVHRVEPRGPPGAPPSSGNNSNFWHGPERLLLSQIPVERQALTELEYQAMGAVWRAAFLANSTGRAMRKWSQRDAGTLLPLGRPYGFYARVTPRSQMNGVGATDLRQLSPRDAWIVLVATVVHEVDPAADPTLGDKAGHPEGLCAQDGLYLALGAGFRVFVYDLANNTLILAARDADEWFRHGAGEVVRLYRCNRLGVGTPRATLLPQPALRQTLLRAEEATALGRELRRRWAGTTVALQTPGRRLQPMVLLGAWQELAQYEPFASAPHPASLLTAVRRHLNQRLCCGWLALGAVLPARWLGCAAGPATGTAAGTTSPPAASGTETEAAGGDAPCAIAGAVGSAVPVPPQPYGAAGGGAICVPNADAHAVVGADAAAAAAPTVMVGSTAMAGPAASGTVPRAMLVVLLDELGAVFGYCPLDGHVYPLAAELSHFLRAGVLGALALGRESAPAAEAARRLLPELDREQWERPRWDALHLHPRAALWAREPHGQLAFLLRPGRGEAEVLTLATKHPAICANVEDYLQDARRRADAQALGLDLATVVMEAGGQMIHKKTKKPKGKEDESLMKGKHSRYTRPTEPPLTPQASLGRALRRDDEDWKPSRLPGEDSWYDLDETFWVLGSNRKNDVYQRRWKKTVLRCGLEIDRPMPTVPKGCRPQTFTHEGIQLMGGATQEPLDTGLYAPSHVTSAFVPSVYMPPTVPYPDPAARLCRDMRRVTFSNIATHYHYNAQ
UniProt P16732: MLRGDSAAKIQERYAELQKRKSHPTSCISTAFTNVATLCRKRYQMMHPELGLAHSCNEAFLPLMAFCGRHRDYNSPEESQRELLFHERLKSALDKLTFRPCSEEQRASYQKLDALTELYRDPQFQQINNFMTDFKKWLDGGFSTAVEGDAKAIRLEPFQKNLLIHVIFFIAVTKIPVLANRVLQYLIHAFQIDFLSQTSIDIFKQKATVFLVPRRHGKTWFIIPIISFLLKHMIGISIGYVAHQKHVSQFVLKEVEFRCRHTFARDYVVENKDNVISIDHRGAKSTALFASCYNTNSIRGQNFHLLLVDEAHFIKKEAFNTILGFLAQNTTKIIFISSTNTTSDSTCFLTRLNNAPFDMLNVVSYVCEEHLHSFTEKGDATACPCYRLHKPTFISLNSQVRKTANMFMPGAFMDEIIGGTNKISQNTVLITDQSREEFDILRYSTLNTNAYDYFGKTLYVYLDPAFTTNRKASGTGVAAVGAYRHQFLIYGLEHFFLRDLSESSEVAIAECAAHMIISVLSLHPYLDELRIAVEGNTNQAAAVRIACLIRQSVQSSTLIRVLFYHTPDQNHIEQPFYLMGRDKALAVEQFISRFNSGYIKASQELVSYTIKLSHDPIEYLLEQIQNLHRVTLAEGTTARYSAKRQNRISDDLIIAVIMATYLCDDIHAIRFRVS

Target: FLAG-tagged UL53 expressed from 53-F HCMV (AD169-RV encoding a FLAG-tagged version of UL53) (human cytomegalovirus (HCMV), strain AD169) (UniProt P16794)
Assay: affinity purification with mass spectrometry

| Molecule | binding |
| --- | --- |
| inner tegument protein UL32 (pp150) (from UniProt P08318 1-1048) | binds |
| myosin Va (from UniProt Q9Y4I1 1-1855) | binds |
| TRS1 (from UniProt P09695 1-788) | binds |
| terminase subunit UL89 (from UniProt P16732 1-674) | binds |
| terminase subunit UL56 (protein, UniProt P16724 1-850) MEMNLLQKLCVVCSKCNEYAMELECLKYCDPNVLLAESTPFKRNAAAIVYLYRKIYPEVVAQNRTQSSLLTLYLEMLLKALHEDTALLDRALMAYSRQPDRAAFYRTVLRLDRCDRHHTVELQFTDNVRFSVSLATLNDIERFLCKMNYVYGILAPEAGLEVCAQLLELLRRLCGISPVARQEVYVEGTTCAQCYEELTIIPNQGRSLNKRLQGLLCNHIAVHRPSSQSDVNIQTVEQDLLDLTTRIPHLAGVLSALKSLFSSSSAYHSYIQEAEEALREYNLFTDIPERIYSLSDFTYWSRTSEVIVKRVGITIQQLNVYHQLCRALMNGISRHLYGEDVEDIFVLGEKALDGEERMFVGSVFAAPNRIIDLITSLSIQAFEDNPVFNKLHESNEMYTKIKHILEEIRRPLPDGTGGDGPEGEAIHLRGREAMSGTGTTLMTASNSSNSSTHSQRNNGGGGRARGGGKKVVGGGVNGQDGDGSENGLRVRNCDEHEALDLVDARSRIHNVTREVNVRKRAYLQKVSEVGYGKVIRCIKTQERLTSKLIDVNLVGPLCLDFISKLMNGFLYRSQYHQDQDVVDVGDQFTYDEHLYVVNNLIHKSLPVESLPLLGQQIYELCNGPLFTHCTDRYPLSHNVDMAYACDNAGVLPHVKDDLVKCAEGTVYPSEWMVVKYMGFFNFSDCQDLNVLQKEMWMHVRELVLSVALYNETFGKQLSIACLRDELHPDRDVILTYNKEWPLLLRHEGSLYKSKDLYLLLYRHLSRPDESGDVPTAPVAKPSTLTAAAAVSGVFREPDRPWLPSPYPSSSTAGVSRRVRATRKRPRRASSLLDLARDEHGIQDLVPGSLR | binds |
| capsid portal protein (UL104) (protein, UniProt P16735 1-697) MERNHWNEKSSGAKRSRERDLTLSTIRSILAADERLRIKASSYLGVGRGVDDEAVIDIFPTGQTMSFLRLLHGFLGTCRGQSMHQVLRDPCVLRKQLLYGVCKTLFDTITVRRVAEEWKLHAALFPYRALDEEDLEQYLLVWSASLRQSVQTGVLGALRDILYQYADNDDYGLYVDWCVTVGLVPLLDVKTKPSEAAERAQFVRAAVQRATETHPLAQDLLQANLALLLQVAERLGAVRVANAPEVRVFKKVRSERLEAQLRGKHIRLYVAAEPLAYERDKLLFTTPVAHLHEEILRYDGLCRHQKICQLLNTFPVKVVTASRHELNCKKLVEMMEQHDRGSDAKKSIMKFLLNVSDSKSRIGIEDSVESFLQDLTPSLVDQNRLLPARGPGGPGVVGPGGAVVGGPAGHVGLLPPPPGPAAPERDIRDLFKKQVIKCLEEQIQSQVDEIQDLRTLNQTWENRVRELRDLLTRYASRREDSMSLGARDAELYHLPVLEAVRKARDAAPFRPLAVEDNRLVANSFFSQFVPGTESLERFLTQLWENEYFRTFRLRRLVTHQGAEEAIVYSNYTVERVTLPYLCHILALGTLDPVPEAYLQLSFGEIVAAAYDDSKFCRYVELICSREKARRRQMSREAAGGVPERGTASSGGPGTLERSAPRRLITADEERRGPERVGRFRNGGPDDPRRAGGPYGFH | binds |

No constants are given. Whether binding was seen depends on the method and setting. Binding seen in cells or lysates may run through a third protein. A yes stands for co-enrichment or nearness to the bait. Other partners may have been found.
